Experimental data: patent US11697690 (dated 2023)

Assay: peptide synthesis
Settings: late stage modification step; for final HPLC purity: reversed-phase HPLC

Aminooxy-Cys-MC-VC-PABC-MMAE
step yield: 62%
final HPLC purity: >96%

Aminooxy-Cys-MC-VC-PABC-PEG8-Dol10
step yield: 46%
final HPLC purity: >96%
